# According to PubChem BioAssay AID1671190 (National Center for Advancing Translational Sciences (NCATS), 2021):
# Protein sequences, listed by entry. Tags and fused reporters are not part of them. Lines headed by an entry give the natural chain unless they say otherwise; changes in a name come on top.
# UniProt P18054: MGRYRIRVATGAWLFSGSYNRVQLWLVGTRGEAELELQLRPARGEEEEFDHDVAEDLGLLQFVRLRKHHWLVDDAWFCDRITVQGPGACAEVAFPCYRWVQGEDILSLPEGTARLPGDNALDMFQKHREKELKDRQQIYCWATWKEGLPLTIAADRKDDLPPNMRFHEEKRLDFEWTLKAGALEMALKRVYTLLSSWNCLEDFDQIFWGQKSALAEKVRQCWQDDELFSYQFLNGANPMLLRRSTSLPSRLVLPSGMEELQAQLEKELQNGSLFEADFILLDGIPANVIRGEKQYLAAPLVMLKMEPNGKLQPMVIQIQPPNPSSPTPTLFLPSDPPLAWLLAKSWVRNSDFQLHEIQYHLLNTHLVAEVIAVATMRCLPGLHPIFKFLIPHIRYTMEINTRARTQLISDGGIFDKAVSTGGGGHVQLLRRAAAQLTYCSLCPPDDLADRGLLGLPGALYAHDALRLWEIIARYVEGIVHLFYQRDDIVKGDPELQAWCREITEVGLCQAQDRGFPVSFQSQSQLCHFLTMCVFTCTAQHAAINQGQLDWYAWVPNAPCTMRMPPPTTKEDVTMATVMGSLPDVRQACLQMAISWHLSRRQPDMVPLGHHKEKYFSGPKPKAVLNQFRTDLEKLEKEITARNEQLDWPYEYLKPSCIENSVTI
# About 6,100 (1.1%) of roughly 580,000 compounds were called active. This list was built around the results that the source calls inconclusive (neither active nor inactive); the mix of calls is not that of the screen. The call rests on the fitted dose curve; in most records, active means well fitted inhibition curve with a large enough effect; inconclusive means small, poorly fitted or top-dose-only effect, or another doubt; inactive means no such curve, though single readings can be large or run the other way. A potency beside an inconclusive call is a rough fit, not a confirmed value.
# Biological target: Polyunsaturated fatty acid lipoxygenase ALOX12 (Homo sapiens) (UniProt P18054)
# Assay: Primary qHTS assay for inhibitors of human arachidonate 12S-lipoxygenase (ALOX12): Round 2
# Conditions: purified 12hLO, xylenol orange hydroperoxide absorbance; activity change, negative = inhibition: at 108 µM (top of the series) unless noted
# Method in brief: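 Hydroperoxide product was detected by ferrous iron/xylenol orange as the 573 to 405 nm absorbance ratio. Arachidonic acid at 40 uM (final) was turned over for 30 min at room temperature by 150 nM human 12hLO, pH 7.0 Hepes buffer, after 15 min compound preincubation.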
# On the % scale 0 is the no-effect control and ±100 the full control effect; potency means the concentration at half of the fitted maximal effect.
Compound,Potency,"activity change, negative = inhibition"
O=C(Nc1ccc2oc(=O)ccc2c1)c1ccc(-c2cccc([N+](=O)[O-])c2)o1,"inconclusive: 50.1 µM [inhibitor, partial curve, poor fit]",–
CCOC(=O)c1c(CSC(=N)N)n(-c2ccccc2)c2cc(Br)c(OC(C)=O)cc12,"inconclusive: 70.8 µM [inhibitor, partial curve, poor fit]",–
COc1ccc(N2CCN(C3CCCN(C(=O)CN4CCOC4=O)C3)CC2)cc1 (configuration not stated),"inconclusive: 50.1 µM [inhibitor, partial curve, poor fit]",–
COCCn1c(=S)[nH]c2cc(C(=O)N3CCN(c4cccc(Cl)c4)CC3)ccc2c1=O,inactive,–
COc1ccc(-c2nc(Nc3ccc(F)c(F)c3F)sc2CCC(=O)O)cc1,"inconclusive: 44.7 µM [inhibitor, partial curve, poor fit]",–
O=C(/C=C/c1ccccn1)c1cc(Br)ccc1O,"inconclusive: 70.8 µM [inhibitor, partial curve, poor fit]",–
Cc1ccc(C(C)NC(=O)c2cccnc2)cc1 (configuration not stated),"inconclusive: 112 µM [inhibitor, single point]",–
COc1ccc(Cc2n[nH]c(=S)n2N)cc1OC,"inconclusive: 50.1 µM [inhibitor, partial curve, poor fit]",–
O=C(OCCCOc1ccc(F)cc1)c1ccc(O)cc1O,"inconclusive: 44.7 µM [inhibitor, partial curve, poor fit]",–
COc1ccccc1/C=C/c1nc(S(=O)(=O)c2ccccc2)c(N(C)C)o1,"inconclusive: 35.5 µM [inhibitor, single point]",–
CSc1nnnn1-c1cccc(NC(=O)c2cccc(Cl)c2)c1,"inconclusive: 89.1 µM [inhibitor, partial curve, poor fit]",–
CCOC(=O)CCN(CC1CC1)C(=O)Cc1cccs1,inactive,–
Cc1ccc(S(=O)(=O)/N=C2/C=C(C3C(=O)CC(C)(C)CC3=O)C(=O)c3ccccc32)cc1,active: 44.7 µM,–
COc1cc(CN(C)CCc2ccccn2)cc(OC)c1OC,"inconclusive: 0.794 µM [inhibitor, full curve, poor fit]",–
CCc1nnc(SCc2cc(C)ccc2C)c2cc3sc(C)cc3n12,inactive,–
COc1ccc(C2NC(=S)NC(C)=C2C(=O)N2CCOCC2)cc1 (configuration not stated),inactive,–
O=C(O)c1[nH]c2ccccc2c1C(c1ccccc1)c1c(C(=O)O)[nH]c2ccccc12,inactive,–
CN(C)Cc1ccccc1-c1ccc2ncnc(N3CCOCC3)c2c1,"inconclusive: 0.501 µM [inhibitor, full curve, poor fit]",–
CC(=O)N1CCc2c(sc(NC(=O)Cc3ccc(C)cc3C)c2C#N)C1,inactive,–
Cc1[nH]c2ccccc2c1/C=C(/C#N)C(=O)NC1CC1,inactive,–

# Taken from above for reference:
Compound,Potency,"activity change, negative = inhibition"
COc1cc(CN(C)CCc2ccccn2)cc(OC)c1OC,"inconclusive: 0.794 µM [inhibitor, full curve, poor fit]",–
CCc1nnc(SCc2cc(C)ccc2C)c2cc3sc(C)cc3n12,inactive,–

# Going on with the list:

Compound,Potency,"activity change, negative = inhibition"
COc1cc(OC)c(OC)cc1/C=C/c1nc2cc3ccccc3cc2c(=O)n1-c1ccc(F)cc1F,"inconclusive: 141 µM [inhibitor, partial curve, poor fit]",–
Cc1ccc(F)cc1NC(=O)CCNC(=O)c1ccc([N+](=O)[O-])cc1,inactive,–
CCCN1C(=O)CCc2cc(NS(=O)(=O)c3cc(C)ccc3C)ccc21,"inconclusive: 89.1 µM [inhibitor, partial curve, poor fit]",–
Cc1cc(NC(=O)c2nc3ccccc3nc2N2CCCCC2)ccc1Br,inactive,–
CN(C)C(=O)c1ccc(CC2CCN(C(=O)CC3CCCCC3)CC2)cc1,inactive,–
O=S(=O)(Nc1nc2n(n1)C(c1ccc(F)cc1)C=C(c1ccccc1)N2)c1ccccc1 (configuration not stated),inactive,–
CCNC(=O)[C@H]1O[C@@H](n2cnc3c(N)nc(NCCc4ccc(CCC(=O)O)cc4)nc32)[C@H](O)[C@H]1O,–,inconclusive: -31.8% [inhibitor] [at 57.4 µM]
Cn1c(SCC(=O)N2CCCC2)nc2ccsc2c1=O,"inconclusive: 56.2 µM [inhibitor, partial curve, poor fit]",–
COc1cc(C(=O)Nc2ccc(C)cc2)nc2ccc(Cl)cc12,inactive,–
COc1cccc(CNCC(O)COc2ccc(C(=O)c3ccccc3)cc2)c1 (configuration not stated),inactive,–
Cc1nn(C(C)C)c(C)c1NC(=O)c1cc2occc2n1Cc1ccccc1,"inconclusive: 141 µM [inhibitor, single point]",–
COc1ccc(N2CCC(N3CCN(C)C(CCO)C3)CC2)cc1 (configuration not stated),"inconclusive: 5.01 µM [inhibitor, full curve, poor fit]",–
Cc1ccc(/C=N/c2sc3c(c2C#N)CCCCC3)o1,"inconclusive: 89.1 µM [inhibitor, partial curve, poor fit]",–
Cc1cc(Nc2ccc(C(=O)O)cc2)n2nc(C)nc2n1,"inconclusive: 20 µM [inhibitor, single point]",–
COC(=O)c1ccc2c(=O)n(CCCCCC(=O)NCc3ccc(Cl)cc3)c(=O)[nH]c2c1,"inconclusive: 63.1 µM [inhibitor, partial curve, poor fit]",–
CCOC(=O)[C@H]1[C@H]2COc3ccc(C)cc3[C@@H]2N2C(=O)c3cc(Cl)ccc3NC(=O)[C@@]12C,"inconclusive: 39.8 µM [inhibitor, partial curve, poor fit]",–
CC(=O)c1ccc(N2CCN(c3ccc(NC(=O)c4ccc(F)cc4)cc3C(=O)O)CC2)cc1,"inconclusive: 79.4 µM [inhibitor, partial curve, poor fit]",–
O=C1C2CCCN2C(c2ccc(F)cc2)N1c1nccs1 (configuration not stated),"inconclusive: 1 µM [inhibitor, full curve, poor fit]",–
O=C1NCc2ccccc2CC12CCCN(CCCc1ccccc1)C2 (configuration not stated),"inconclusive: 56.2 µM [inhibitor, partial curve, poor fit]",–
O=[N+]([O-])c1cccc(N=NNc2cccc([N+](=O)[O-])c2)c1,"inconclusive: 1.78 µM [inhibitor, full curve, poor fit]",–
CCCNC(=O)Cc1ccc(-n2c(=O)c3ccccc3n(CC(=O)Nc3cc(C)cc(C)c3)c2=O)cc1,inactive,–
